The chains behind the UniProt entries cited, without tags or fusion partners. Residues count along the entry.
UniProt P31554, residues 25-784: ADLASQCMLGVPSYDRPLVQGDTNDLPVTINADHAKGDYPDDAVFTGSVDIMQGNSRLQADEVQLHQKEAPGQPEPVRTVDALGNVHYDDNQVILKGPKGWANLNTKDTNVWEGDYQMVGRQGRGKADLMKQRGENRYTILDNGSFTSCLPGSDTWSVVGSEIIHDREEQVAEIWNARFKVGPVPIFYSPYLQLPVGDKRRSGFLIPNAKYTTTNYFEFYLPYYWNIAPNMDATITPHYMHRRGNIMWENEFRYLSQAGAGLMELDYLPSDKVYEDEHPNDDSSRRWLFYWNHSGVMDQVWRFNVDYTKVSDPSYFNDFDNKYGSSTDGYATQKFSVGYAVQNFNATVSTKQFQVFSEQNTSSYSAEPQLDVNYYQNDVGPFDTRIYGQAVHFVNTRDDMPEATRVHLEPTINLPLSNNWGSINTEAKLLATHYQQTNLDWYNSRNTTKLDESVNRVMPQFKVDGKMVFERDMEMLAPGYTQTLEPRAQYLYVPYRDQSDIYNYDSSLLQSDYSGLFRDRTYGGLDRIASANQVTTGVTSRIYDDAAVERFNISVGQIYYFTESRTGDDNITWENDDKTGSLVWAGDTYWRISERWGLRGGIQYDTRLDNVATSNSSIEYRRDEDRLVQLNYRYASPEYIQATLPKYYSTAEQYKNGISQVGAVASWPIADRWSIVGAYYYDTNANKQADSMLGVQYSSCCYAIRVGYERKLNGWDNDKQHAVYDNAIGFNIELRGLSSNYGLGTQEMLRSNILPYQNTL
UniProt P0A905, residues 18-155: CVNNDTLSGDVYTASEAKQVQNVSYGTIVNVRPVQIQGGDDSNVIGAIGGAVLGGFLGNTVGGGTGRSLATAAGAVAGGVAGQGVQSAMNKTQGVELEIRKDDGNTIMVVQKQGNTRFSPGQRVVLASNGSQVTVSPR
UniProt P02943, residues 26-446: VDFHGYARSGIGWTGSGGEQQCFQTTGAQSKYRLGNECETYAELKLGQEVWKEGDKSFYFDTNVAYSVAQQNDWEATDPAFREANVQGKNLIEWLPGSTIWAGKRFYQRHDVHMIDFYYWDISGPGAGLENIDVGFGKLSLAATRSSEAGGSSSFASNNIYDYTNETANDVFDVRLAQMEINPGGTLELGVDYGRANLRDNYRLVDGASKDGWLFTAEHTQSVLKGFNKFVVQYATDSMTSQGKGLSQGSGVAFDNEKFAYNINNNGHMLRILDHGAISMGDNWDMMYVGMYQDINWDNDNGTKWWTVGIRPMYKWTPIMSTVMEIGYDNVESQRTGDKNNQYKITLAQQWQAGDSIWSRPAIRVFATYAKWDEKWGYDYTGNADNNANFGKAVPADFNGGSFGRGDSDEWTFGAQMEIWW
UniProt P0AE06, residues 25-397: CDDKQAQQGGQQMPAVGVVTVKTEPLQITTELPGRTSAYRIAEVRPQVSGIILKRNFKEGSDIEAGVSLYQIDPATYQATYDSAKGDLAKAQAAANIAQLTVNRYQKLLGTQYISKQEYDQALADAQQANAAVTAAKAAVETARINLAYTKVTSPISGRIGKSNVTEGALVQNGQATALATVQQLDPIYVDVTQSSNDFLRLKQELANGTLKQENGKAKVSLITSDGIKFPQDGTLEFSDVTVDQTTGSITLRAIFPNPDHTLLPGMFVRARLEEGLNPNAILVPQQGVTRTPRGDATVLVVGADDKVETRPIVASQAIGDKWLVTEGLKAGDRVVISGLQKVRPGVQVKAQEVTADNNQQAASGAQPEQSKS

In article doi:10.64898/2025.12.22.696046:

T1: His×6-tagged YfgH (E. coli) (UniProt P65290)
T1 sequence: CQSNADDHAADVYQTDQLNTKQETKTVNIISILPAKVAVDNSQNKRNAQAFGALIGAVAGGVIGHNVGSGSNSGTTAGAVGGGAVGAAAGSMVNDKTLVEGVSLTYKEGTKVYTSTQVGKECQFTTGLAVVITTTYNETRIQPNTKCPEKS

B1: DegP (protein, UniProt P0C0V0 27-474)
chain: AETSSATTAQQMPSLAPMLEKVMPSVVSINVEGSTTVNTPRMPRNFQQFFGDDSPFCQEGSPFQSSPFCQGGQGGNGGGQQQKFMALGSGVIIDADKGYVVTNNHVVDNATVIKVQLSDGRKFDAKMVGKDPRSDIALIQIQNPKNLTAIKMADSDALRVGDYTVAIGNPFGLGETVTSGIVSALGRSGLNAENYENFIQTDAAINRGNSGGALVNLNGELIGINTAILAPDGGNIGIGFAIPSNMVKNLTSQMVEYGQVKRGELGIMGTELNSELAKAMKVDAQRGAFVSQVLPNSSAAKAGIKAGDVITSLNGKPISSFAALRAQVGTMPVGSKLTLGLLRDGKQVNVNLELQQSSQNQVDSSSIFNGIEGAEMSNKGKDQGVVVNNVKTGTPAAQIGLKKGDVIIGANQQAVKNIAELRKVLDSKPSVLALNIQRGDSTIYLLMQ
B2: NarG (protein, UniProt P09152 1-1247)
chain: MSKFLDRFRYFKQKGETFADGHGQLLNTNRDWEDGYRQRWQHDKIVRSTHGVNCTGSCSWKIYVKNGLVTWETQQTDYPRTRPDLPNHEPRGCPRGASYSWYLYSANRLKYPMMRKRLMKMWREAKALHSDPVEAWASIIEDADKAKSFKQARGRGGFVRSSWQEVNELIAASNVYTIKNYGPDRVAGFSPIPAMSMVSYASGARYLSLIGGTCLSFYDWYCDLPPASPQTWGEQTDVPESADWYNSSYIIAWGSNVPQTRTPDAHFFTEVRYKGTKTVAVTPDYAEIAKLCDLWLAPKQGTDAAMALAMGHVMLREFHLDNPSQYFTDYVRRYTDMPMLVMLEERDGYYAAGRMLRAADLVDALGQENNPEWKTVAFNTNGEMVAPNGSIGFRWGEKGKWNLEQRDGKTGEETELQLSLLGSQDEIAEVGFPYFGGDGTEHFNKVELENVLLHKLPVKRLQLADGSTALVTTVYDLTLANYGLERGLNDVNCATSYDDVKAYTPAWAEQITGVSRSQIIRIAREFADNADKTHGRSMIIVGAGLNHWYHLDMNYRGLINMLIFCGCVGQSGGGWAHYVGQEKLRPQTGWQPLAFALDWQRPARHMNSTSYFYNHSSQWRYETVTAEELLSPMADKSRYTGHLIDFNVRAERMGWLPSAPQLGTNPLTIAGEAEKAGMNPVDYTVKSLKEGSIRFAAEQPENGKNHPRNLFIWRSNLLGSSGKGHEFMLKYLLGTEHGIQGKDLGQQGGVKPEEVDWQDNGLEGKLDLVVTLDFRLSSTCLYSDIILPTATWYEKDDMNTSDMHPFIHPLSAAVDPAWEAKSDWEIYKAIAKKFSEVCVGHLGKETDIVTLPIQHDSAAELAQPLDVKDWKKGECDLIPGKTAPHIMVVERDYPATYERFTSIGPLMEKIGNGGKGIAWNTQSEMDLLRKLNYTKAEGPAKGQPMLNTAIDAAEMILTLAPETNGQVAVKAWAALSEFTGRDHTHLALNKEDEKIRFRDIQAQPRKIISSPTWSGLEDEHVSYNAGYTNVHELIPWRTLSGRQQLYQDHQWMRDFGESLLVYRPPIDTRSVKEVIGQKSNGNQEKALNFLTPHQKWGIHSTYSDNLLMLTLGRGGPVVWLSEADAKDLGIADNDWIEVFNSNGALTARAVVSQRVPAGMTMMYHAQERIVNLPGSEITQQRGGIHNSVTRITPKPTHMIGGYAHLAYGFNYYGTVGSNRDEFVVVRKMKNIDWLDGEGNDQVQESVK
B3: Slp (protein, UniProt P37194 19-188)
chain: CSSIPQNIKGNNQPDIQKSFVAVHNQPGLYVGQQARFGGKVINVINGKTDTLLEISVLPLDSYAKPDIEANYQGRLLARQSGFLDPVNYRNHFVTILGTIQGEQPGFINKVPYNFLEVNMQGIQVWHLREVVNTTYNLWDYGYGAFWPEPGWGAPYYTNAVSQVTPELVK

target: T1, His×6-tagged YfgH (E. coli); assay: affinity purification with mass spectrometry

binding, binds:
ShuA (E. coli (endogenous in MP1)), LptD (from UniProt P31554 25-784), SlyB (from UniProt P0A905 18-155), FyuA (E. coli (endogenous in MP1)), LamB (from UniProt P02943 26-446), AcrA (from UniProt P0AE06 25-397), B1, B2, B3

These are yes or no findings as the source states them, for the method shown. Binding seen in cells or lysates may run through a third protein. Here binding means that the protein was enriched with, or labelled near, the bait; the list need not be complete. Tags and fused reporters may be left off the sequences shown.
